Source: patent publication US20260226115A1
Results are given in words; binding and its absence hold for the method and conditions named. Binding seen in cells or lysates may run through a third protein. Some results given as binding are weak or reduced against the parent protein; the word gives no strength.

Chains of the proteins cited; added tags and fusions are not shown. Lines headed by an entry give the natural chain unless they say otherwise; changes in a name come on top.
UniProt Q8VBX6: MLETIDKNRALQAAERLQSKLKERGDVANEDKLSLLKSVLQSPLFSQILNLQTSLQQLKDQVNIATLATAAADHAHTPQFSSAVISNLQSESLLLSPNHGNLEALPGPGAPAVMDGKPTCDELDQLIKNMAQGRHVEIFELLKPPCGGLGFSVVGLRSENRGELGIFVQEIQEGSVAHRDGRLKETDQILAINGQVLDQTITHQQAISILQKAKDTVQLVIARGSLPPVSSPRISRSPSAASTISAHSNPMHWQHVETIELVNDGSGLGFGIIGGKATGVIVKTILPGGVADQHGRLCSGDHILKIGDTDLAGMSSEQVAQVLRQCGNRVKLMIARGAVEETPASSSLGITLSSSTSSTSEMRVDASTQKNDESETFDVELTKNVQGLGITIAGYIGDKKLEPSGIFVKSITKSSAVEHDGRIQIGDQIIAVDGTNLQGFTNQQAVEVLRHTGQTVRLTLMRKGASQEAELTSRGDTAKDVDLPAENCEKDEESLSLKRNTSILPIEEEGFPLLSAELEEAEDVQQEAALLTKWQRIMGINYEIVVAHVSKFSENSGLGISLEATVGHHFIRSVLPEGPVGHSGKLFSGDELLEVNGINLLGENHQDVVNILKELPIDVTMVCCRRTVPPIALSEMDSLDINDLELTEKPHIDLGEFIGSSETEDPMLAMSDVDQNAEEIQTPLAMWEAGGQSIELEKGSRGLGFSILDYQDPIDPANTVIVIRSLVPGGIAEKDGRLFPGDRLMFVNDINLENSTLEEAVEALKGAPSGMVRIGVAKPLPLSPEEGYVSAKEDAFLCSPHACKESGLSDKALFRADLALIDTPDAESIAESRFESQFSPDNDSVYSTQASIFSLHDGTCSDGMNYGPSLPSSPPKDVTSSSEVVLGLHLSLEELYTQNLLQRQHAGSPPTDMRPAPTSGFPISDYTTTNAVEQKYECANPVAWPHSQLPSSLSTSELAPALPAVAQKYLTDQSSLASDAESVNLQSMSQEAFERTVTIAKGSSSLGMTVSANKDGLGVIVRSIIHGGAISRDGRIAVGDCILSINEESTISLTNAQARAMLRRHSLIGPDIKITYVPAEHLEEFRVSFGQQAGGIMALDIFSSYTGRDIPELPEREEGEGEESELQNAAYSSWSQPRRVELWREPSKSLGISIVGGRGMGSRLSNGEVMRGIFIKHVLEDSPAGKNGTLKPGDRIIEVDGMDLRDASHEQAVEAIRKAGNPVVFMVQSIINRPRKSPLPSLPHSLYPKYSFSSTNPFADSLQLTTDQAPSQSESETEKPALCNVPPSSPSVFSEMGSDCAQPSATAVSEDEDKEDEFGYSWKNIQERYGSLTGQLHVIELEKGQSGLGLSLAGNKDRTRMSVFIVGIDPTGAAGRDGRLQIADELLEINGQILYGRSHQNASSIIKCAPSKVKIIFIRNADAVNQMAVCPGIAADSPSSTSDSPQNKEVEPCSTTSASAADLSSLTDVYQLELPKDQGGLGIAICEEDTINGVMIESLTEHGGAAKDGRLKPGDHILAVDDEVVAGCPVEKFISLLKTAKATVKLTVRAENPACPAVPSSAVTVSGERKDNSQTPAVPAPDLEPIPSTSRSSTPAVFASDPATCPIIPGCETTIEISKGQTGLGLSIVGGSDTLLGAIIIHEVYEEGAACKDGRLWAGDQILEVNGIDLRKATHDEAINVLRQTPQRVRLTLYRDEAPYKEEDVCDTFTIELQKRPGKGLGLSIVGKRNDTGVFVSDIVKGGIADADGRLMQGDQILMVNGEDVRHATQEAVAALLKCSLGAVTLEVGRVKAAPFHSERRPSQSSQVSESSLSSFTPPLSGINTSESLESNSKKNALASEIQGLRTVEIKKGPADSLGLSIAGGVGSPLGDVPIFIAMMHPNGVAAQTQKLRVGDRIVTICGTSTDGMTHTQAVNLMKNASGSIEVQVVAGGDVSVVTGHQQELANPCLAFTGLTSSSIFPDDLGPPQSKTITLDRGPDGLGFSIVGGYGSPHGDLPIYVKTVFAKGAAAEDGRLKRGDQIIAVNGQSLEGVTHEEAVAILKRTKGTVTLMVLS
UniProt P46937: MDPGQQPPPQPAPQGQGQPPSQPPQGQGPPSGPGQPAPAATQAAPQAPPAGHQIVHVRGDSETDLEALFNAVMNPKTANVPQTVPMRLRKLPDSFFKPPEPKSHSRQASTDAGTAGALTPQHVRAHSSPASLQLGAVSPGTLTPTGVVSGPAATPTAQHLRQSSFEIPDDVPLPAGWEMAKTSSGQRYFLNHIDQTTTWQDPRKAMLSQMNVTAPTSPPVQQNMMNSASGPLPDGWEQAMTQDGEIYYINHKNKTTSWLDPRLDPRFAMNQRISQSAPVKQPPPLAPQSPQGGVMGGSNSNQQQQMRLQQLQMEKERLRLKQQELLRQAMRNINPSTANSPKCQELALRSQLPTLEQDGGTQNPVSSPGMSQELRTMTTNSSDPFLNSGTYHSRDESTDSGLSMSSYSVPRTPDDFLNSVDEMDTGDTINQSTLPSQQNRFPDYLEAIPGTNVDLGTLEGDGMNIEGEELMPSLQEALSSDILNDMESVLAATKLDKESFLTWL

Biological target: multiple PDZ domain protein (MPDZ) (mouse) (UniProt Q8VBX6)
Assay: co-immunoprecipitation with anti-FLAG beads, anti-MUPP1/MPDZ immunoblot

- binding: binds
Substance: Flag-tagged YAP6SA (from UniProt P46937 1-504)
